Some of the results follow.
Molecular target: T1, OsSMF1 (Oryza sativa, UniProt Q6ZLB0 1-436)
T1 sequence: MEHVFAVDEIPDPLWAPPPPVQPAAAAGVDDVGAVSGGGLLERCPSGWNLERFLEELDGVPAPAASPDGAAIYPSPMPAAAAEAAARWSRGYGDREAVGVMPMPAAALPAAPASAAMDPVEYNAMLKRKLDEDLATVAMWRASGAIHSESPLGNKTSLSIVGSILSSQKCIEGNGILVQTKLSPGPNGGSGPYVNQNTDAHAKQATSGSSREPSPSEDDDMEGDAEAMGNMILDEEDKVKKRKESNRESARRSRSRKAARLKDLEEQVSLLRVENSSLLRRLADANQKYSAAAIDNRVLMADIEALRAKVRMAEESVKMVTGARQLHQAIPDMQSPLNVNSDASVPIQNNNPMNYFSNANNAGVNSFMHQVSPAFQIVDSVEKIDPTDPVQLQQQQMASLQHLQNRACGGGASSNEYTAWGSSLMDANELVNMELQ
Test: protein-binding microarray (RPBM); PBS, 2% BSA, 51.3 ng/ul salmon testes DNA, 50 uM zinc acetate, 200 nM TF, 25 C, 1 h; high values mean tight binding
Conditions: protein: recombinant; tags: N-terminal polyhistidine and DsRed monomer fusion (pET32a); chain copies: 2; label: CyDye5-dUTP incorporated in the synthesized complementary strand; 3' TTTTT single-stranded linker to array surface; dsDNA, one strand shown
How it was run: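 Binding signal is reported as fluorescence intensity per feature (arbitrary units) from an Axon 4000B scanner. Incubation used 200 nM of each Ni–NTA-purified, N-terminally polyhistidine- and DsRed-fused transcription factor from E. coli BL21-CodonPlus on a double-stranded custom Agilent array for 1 h at 25 °C, with 50 µM zinc acetate in the buffer, followed by washing.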

Sequence	binding signal
TGCCCACGCCGCGCCGCCGCCTCCTCCTCCTCCTCCTCCTCGGAGTCACCTAGTGCAG	46900 fluorescence intensity (a.u.)
TGAAGATAATGACTCGACGATTGTCCAAAATATTCTTGCCCGGAGTCACCTAGTGCAG	5160 fluorescence intensity (a.u.)
TAGCTCGATCGCGCGGTCGCCGGAGCTGAGGTAGACGAAGCGGAGTCACCTAGTGCAG	4260 fluorescence intensity (a.u.)
TAGTAGCAGCAGAAGATGTCTATGCAAGGCGTTGTTCCTGCGGAGTCACCTAGTGCAG	16700 fluorescence intensity (a.u.)
GAGCCGCCCTGCTGACCAGCATCGACGTCACCGCTCGGGCCGGAGTCACCTAGTGCAG	22800 fluorescence intensity (a.u.)
GGTGGGCCCCTAACCATCACCCCTACTACGTCACCAAGCTCGGAGTCACCTAGTGCAG	4410 fluorescence intensity (a.u.)
GTCCTCCATGAACAGTCCCACCGAGTTGTCTATTTACGTTCGGAGTCACCTAGTGCAG	3480 fluorescence intensity (a.u.)
CGTTTCCCTTCTTGGAGGCGTTGTCATGGCGTTCTTTCATCGGAGTCACCTAGTGCAG	3390 fluorescence intensity (a.u.)
TGGGCCTACGTCAACTACGACATGCGTGGCCTTATCTTTTCGGAGTCACCTAGTGCAG	5480 fluorescence intensity (a.u.)
TTTTATCCGGATGTGCGGCATCTTCGTTGTCTCCCTCGCTCGGAGTCACCTAGTGCAG	3720 fluorescence intensity (a.u.)
TACAGTATAAGAGGACGGTAAGCAAATGTTCTGAAGAGTCCGGAGTCACCTAGTGCAG	35000 fluorescence intensity (a.u.)
CCTCAGCATAGTGGAGTGCAGTAGGTGACACTTCCAAATTCGGAGTCACCTAGTGCAG	3840 fluorescence intensity (a.u.)
TGATCGTGATAAAGCGAATACTAGTCAAGCATGCGCGTGTCGGAGTCACCTAGTGCAG	3990 fluorescence intensity (a.u.)
CACGCATAAATGCTTCGCGATTACTCATCTTCCGAGAGTACGGAGTCACCTAGTGCAG	3770 fluorescence intensity (a.u.)
GCCTCCTCCCTGTCCGCCGCCGCCGCCGCCGCTCGCCGGACGGAGTCACCTAGTGCAG	3150 fluorescence intensity (a.u.)
GTGACCTATTGACTGTACCAGTATCCTTTTGCAAGATGGACGGAGTCACCTAGTGCAG	3410 fluorescence intensity (a.u.)
ACGCGCTGGCTGAGCGCTGACGACGCGTCCCTCCTCCTTCCGGAGTCACCTAGTGCAG	3870 fluorescence intensity (a.u.)
CATCACACAAACATCCCCGTCGCGTGGACTCGCGAACCCCCGGAGTCACCTAGTGCAG	3420 fluorescence intensity (a.u.)
ACGACATTCAATTCCAGTTGACGTGGCGCTGAGGTGTCTACGGAGTCACCTAGTGCAG	29300 fluorescence intensity (a.u.)
TTTCTCTGAACGACCGGCCACGTTAAACTAAGGCCAAGTCCGGAGTCACCTAGTGCAG	65500 fluorescence intensity (a.u.)
AGGCAGGGTGGGTGGGTGGTGGGCTTGCTCGCTCCGCGTCCGGAGTCACCTAGTGCAG	5810 fluorescence intensity (a.u.)

Sequence	binding signal
TAACTGCCGAACTGTACTGACAGGTCATCCGGTCCCACCTCGGAGTCACCTAGTGCAG	7130 fluorescence intensity (a.u.)
GCCGCCACGTGTGGGCCGCAGCCGCATCTCTTCTCTCTCTCGGAGTCACCTAGTGCAG	8900 fluorescence intensity (a.u.)
GGAGAACGGATGTGTATGGCATGGCATTACTCATGGATTACGGAGTCACCTAGTGCAG	3590 fluorescence intensity (a.u.)
GCCGCCGCCGCCGCCGTCGGAGAGGCGCTCCGCCGCGGCGCGGAGTCACCTAGTGCAG	10300 fluorescence intensity (a.u.)
TTTAGGAGTTTAGGGGTCGAGATATCCGGTTTTGTAGTTTCGGAGTCACCTAGTGCAG	22400 fluorescence intensity (a.u.)
AAATCAACGGTGAGATTAGATAGTGCCATGTGGCGACTTACGGAGTCACCTAGTGCAG	24800 fluorescence intensity (a.u.)
GGGATTTAGCTGTTGGTGTAGTGGGTGGAAGGCTAGAAGGCGGAGTCACCTAGTGCAG	3160 fluorescence intensity (a.u.)
GACTGATGAAGATAAAATTCAGGCTGTCAGCAATTGGCCTCGGAGTCACCTAGTGCAG	3680 fluorescence intensity (a.u.)
CCAAACCTACACGTCCCAGTTCAGTCATTCATCCTGCTAGCGGAGTCACCTAGTGCAG	4890 fluorescence intensity (a.u.)
GCGGCGCTGCTACTGTCGCCGCATAACCCTCGTCTTCACCCGGAGTCACCTAGTGCAG	26100 fluorescence intensity (a.u.)
TCCCTTCCTGGCGCTGTCAGCTTGTGGGGTCGGGATGTCACGGAGTCACCTAGTGCAG	3300 fluorescence intensity (a.u.)
GACCTGGTCTTACATCACTTTCGTAATTGCTGCTTCGATTCGGAGTCACCTAGTGCAG	3490 fluorescence intensity (a.u.)
CACTCAGATGGTCCCACATGTCATCCTCACAAGTGTCAATCGGAGTCACCTAGTGCAG	4210 fluorescence intensity (a.u.)
CAGCGTGTCCTTCATGACACCGTGGATCCAGTGAATCGGCCGGAGTCACCTAGTGCAG	5940 fluorescence intensity (a.u.)
TTCAAGTCCAACCTCGGCCACATGCTCCGCCTCCGCCTCGCGGAGTCACCTAGTGCAG	3780 fluorescence intensity (a.u.)
GTTACCTGCATTTTGAGAGCCTCTCTCCTCTCATGGGTTGCGGAGTCACCTAGTGCAG	26100 fluorescence intensity (a.u.)
TGGACGATTAGCCAAATGTAAAACGAGAAACACGAATAACCGGAGTCACCTAGTGCAG	18900 fluorescence intensity (a.u.)
TTTCGTGGCTGATTCCCCTATTGGGCCTGGCCCAGTTGGACGGAGTCACCTAGTGCAG	3210 fluorescence intensity (a.u.)
AATTTGTCCCTGGTGACCGTGACATCAGATTGAGTATCACCGGAGTCACCTAGTGCAG	3410 fluorescence intensity (a.u.)
GCGCTCACCGCCTCTCCGTGGCGCTCCGTCAAGCTTCGCGCGGAGTCACCTAGTGCAG	3320 fluorescence intensity (a.u.)
TTACTTTGTGACCATCCGCGACGTCACGCTCACATCATTTCGGAGTCACCTAGTGCAG	4080 fluorescence intensity (a.u.)

For reference, part of the list above.
Sequence	binding signal
GGAGAACGGATGTGTATGGCATGGCATTACTCATGGATTACGGAGTCACCTAGTGCAG	3590 fluorescence intensity (a.u.)
GCCGCCGCCGCCGCCGTCGGAGAGGCGCTCCGCCGCGGCGCGGAGTCACCTAGTGCAG	10300 fluorescence intensity (a.u.)
